Measured values: patent US7589078B2, “Anti-viral nucleoside analogs and methods for treating viral infections, especially HIV infections” (Yale University, priority 2003, dated 2009)
Some results were stated once for a whole list of compounds, not compound by compound. At least one structure is not confirmed: it was looked up by name or label, or the drawing left a doubt.

tested on: HepG2 cells; assay: Cellular toxicity in HepG2 cells (methylene blue); format: cell-based, human; conditions: 72 h toxicity study

SMILES	ID50
C=C[C@@]1(CO)C=C[C@H](n2cc(C)c(=O)[nH]c2=O)O1 [4′-vinyl D4T]	greater than 100 μM
Cc1cn([C@H]2C=C[C@@H](CO)O2)c(=O)[nH]c1=O [D4T, 2′,3′-Didehydro-3′-deoxythymidine, reference compound]	greater than 100 μM
C#C[C@@]1(CO)C=C[C@H](n2cc(C)c(=O)[nH]c2=O)O1 [4′-ethynyl D4T, 2′,3′-didehydro-3′-deoxy-4′-ethynylthymidine]	greater than 100 μM
